Laboratory results taken from the supplement of paper PMC12823440, “Inhibitors supercharge kinase turnover through native proteolytic circuits” (Nature, 2025).
Structures can show the parent of a compound that is named as a salt. Some of the results follow. Hit calls seldom repeat between salt and free forms of one compound.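 Kinases, fused to nanoluciferase, were expressed in K562 cells; luminescence was measured every 4 h from 2 to 18 h as percent of control (DMSO = 100%, positive control = 0%). A time point is decreased if signal falls significantly (2 sigma). Hits were called by the authors by a rule that is not shown; the count of time points alone does not decide it.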

Amino acid sequences for entries named in this document (tags omitted). A change or cut given only in a name is not applied to a line headed by its entry.
UniProt P00519, whole entry: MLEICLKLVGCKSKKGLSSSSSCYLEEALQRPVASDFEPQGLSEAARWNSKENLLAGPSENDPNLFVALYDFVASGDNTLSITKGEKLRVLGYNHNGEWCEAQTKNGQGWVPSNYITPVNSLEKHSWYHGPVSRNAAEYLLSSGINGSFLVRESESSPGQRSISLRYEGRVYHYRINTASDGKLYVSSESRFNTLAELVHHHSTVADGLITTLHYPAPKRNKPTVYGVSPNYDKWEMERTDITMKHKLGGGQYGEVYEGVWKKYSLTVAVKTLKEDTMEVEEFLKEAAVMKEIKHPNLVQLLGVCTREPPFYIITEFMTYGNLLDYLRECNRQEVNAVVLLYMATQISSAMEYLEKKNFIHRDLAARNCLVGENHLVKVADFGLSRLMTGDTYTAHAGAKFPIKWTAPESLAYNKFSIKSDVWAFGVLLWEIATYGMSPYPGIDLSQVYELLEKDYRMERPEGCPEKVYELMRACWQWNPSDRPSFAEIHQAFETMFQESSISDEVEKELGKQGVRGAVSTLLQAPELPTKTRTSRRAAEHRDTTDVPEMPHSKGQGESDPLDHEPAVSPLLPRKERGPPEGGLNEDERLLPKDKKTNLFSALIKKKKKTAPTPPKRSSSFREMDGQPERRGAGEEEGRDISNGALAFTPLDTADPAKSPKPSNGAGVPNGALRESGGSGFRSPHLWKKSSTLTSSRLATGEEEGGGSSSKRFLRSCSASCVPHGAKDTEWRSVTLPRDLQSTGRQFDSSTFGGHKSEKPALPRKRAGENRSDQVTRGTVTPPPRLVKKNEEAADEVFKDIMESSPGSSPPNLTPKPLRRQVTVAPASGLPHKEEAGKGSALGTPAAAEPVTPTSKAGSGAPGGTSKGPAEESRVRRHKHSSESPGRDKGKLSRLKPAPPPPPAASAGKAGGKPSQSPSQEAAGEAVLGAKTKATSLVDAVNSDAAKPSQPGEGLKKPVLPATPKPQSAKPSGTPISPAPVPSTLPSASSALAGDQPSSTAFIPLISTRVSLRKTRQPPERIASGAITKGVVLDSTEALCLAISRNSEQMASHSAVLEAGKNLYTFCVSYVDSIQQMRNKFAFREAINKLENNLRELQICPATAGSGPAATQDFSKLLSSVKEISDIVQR
UniProt P31749: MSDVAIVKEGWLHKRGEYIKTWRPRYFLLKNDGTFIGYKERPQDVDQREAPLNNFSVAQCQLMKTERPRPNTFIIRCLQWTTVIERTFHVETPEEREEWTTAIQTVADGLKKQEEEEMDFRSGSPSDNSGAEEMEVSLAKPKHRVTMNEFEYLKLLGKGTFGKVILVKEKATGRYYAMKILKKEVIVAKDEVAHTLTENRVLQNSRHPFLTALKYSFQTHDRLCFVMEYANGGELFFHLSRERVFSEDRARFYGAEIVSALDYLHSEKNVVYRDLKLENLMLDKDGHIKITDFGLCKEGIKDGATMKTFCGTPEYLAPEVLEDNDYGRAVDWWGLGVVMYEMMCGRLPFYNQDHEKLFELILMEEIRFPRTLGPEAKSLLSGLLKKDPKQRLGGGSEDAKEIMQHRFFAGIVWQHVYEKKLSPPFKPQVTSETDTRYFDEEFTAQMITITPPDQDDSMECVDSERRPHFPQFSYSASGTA
UniProt Q9UM73: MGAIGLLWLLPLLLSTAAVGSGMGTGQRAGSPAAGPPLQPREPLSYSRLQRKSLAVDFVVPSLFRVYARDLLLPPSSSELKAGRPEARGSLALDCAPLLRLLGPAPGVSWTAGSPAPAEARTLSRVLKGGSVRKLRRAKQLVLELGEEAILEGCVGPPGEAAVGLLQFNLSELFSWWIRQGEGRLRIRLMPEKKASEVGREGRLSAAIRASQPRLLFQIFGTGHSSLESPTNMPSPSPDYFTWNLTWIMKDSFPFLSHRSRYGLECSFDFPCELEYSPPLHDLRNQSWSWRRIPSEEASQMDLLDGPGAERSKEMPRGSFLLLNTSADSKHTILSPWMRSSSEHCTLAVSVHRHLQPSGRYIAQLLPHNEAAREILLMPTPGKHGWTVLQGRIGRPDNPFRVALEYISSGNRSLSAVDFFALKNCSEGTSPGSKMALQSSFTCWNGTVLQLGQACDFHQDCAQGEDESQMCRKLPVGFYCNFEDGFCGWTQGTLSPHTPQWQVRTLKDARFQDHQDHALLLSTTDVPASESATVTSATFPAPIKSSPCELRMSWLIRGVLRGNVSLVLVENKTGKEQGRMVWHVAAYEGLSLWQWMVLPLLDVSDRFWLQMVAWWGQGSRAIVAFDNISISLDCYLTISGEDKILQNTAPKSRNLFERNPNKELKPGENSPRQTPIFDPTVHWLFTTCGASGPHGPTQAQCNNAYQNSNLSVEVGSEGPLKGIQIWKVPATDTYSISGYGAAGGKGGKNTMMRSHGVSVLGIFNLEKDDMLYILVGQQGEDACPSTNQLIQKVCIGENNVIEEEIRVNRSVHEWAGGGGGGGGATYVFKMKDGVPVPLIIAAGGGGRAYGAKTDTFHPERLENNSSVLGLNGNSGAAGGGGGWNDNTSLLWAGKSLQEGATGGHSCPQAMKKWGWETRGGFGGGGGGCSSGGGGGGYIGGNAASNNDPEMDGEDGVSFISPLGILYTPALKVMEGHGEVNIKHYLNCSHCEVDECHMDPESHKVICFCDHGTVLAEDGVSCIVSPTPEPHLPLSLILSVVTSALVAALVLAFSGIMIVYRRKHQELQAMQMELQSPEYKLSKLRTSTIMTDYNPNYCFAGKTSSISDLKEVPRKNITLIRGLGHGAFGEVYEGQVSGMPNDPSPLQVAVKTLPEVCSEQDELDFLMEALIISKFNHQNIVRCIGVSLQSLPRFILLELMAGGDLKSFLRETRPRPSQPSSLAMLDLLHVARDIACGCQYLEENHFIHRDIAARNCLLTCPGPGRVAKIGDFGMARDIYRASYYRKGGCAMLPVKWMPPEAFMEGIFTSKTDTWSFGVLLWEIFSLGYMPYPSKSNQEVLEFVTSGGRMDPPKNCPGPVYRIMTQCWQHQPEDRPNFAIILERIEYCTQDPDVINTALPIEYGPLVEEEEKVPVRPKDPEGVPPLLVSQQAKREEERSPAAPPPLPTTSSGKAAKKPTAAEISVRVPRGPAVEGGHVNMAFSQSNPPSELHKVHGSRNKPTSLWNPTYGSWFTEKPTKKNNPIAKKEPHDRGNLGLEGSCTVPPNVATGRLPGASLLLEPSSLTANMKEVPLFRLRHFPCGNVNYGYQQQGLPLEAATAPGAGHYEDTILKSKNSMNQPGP
UniProt O14965: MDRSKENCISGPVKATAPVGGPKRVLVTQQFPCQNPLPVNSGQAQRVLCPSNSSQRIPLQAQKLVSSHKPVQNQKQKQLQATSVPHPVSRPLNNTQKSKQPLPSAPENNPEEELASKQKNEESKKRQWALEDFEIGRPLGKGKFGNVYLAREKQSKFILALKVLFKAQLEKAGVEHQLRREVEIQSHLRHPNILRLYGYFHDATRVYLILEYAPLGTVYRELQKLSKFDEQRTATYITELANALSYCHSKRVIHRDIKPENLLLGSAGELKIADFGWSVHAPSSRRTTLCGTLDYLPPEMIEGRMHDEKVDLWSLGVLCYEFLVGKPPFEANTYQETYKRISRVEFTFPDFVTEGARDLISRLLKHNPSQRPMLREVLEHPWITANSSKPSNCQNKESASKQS
UniProt Q96GD4, whole entry: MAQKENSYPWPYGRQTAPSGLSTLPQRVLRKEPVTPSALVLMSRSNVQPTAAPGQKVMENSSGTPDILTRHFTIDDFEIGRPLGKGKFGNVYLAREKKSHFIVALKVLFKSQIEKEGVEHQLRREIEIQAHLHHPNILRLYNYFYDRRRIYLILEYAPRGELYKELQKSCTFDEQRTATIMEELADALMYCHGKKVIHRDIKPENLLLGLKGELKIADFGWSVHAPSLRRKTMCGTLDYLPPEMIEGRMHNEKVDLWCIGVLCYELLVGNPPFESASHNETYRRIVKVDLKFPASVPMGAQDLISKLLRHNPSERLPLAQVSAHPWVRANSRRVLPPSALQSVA
UniProt Q9UQB9: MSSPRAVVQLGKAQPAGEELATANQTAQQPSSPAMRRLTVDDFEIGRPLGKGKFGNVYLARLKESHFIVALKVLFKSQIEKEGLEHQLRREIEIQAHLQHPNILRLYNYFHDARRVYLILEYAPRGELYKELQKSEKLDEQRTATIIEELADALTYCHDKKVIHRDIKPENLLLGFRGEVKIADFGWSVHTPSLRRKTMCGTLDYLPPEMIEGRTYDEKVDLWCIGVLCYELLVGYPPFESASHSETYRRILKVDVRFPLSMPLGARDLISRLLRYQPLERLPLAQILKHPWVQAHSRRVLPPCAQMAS
UniProt P51451: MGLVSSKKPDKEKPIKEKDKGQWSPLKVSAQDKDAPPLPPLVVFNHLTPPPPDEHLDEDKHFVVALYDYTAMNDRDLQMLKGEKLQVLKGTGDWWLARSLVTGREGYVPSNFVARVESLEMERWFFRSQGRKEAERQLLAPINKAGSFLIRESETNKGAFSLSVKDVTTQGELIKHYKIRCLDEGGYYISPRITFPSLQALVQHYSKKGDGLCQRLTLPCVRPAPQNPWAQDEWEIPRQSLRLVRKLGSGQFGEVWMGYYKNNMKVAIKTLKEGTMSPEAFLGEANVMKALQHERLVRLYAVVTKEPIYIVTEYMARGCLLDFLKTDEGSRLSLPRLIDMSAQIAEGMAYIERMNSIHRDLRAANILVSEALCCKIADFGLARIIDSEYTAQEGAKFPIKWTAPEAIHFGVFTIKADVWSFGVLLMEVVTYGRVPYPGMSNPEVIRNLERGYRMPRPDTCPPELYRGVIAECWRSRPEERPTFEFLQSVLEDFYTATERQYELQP
UniProt P51813: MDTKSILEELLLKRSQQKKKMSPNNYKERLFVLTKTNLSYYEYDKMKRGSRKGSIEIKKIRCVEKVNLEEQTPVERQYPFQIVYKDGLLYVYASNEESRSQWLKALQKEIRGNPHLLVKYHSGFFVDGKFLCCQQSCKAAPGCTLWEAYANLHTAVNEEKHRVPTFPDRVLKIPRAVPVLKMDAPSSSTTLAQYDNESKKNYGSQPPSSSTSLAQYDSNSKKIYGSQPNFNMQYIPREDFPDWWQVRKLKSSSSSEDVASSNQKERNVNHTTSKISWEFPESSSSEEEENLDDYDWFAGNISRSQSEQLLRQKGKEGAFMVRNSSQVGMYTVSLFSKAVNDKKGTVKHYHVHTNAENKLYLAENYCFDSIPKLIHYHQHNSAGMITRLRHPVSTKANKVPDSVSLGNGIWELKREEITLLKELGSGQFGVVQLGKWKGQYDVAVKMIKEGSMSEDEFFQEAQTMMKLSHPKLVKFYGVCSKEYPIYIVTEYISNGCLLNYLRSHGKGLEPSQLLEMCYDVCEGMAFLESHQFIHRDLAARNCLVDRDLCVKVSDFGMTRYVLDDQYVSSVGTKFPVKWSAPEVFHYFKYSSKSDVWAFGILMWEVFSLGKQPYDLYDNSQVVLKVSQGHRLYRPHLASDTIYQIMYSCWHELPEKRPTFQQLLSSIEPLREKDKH
UniProt Q00526: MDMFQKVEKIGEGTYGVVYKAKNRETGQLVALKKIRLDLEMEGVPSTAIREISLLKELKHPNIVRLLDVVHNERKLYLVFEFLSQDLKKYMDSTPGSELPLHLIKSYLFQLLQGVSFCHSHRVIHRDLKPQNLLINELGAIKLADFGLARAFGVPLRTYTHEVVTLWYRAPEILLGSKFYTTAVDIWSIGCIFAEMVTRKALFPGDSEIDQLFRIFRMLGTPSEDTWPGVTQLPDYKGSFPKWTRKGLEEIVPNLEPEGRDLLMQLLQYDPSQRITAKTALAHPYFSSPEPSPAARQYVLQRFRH
UniProt Q00535, whole entry, looked up: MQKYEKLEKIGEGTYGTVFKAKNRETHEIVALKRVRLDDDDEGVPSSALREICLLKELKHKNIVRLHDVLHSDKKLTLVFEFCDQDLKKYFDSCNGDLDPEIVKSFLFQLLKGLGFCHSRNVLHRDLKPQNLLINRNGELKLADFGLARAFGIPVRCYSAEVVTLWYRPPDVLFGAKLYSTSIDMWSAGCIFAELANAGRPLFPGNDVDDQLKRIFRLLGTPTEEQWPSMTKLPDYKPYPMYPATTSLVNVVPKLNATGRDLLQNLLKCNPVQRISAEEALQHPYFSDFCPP
UniProt Q00534, whole entry: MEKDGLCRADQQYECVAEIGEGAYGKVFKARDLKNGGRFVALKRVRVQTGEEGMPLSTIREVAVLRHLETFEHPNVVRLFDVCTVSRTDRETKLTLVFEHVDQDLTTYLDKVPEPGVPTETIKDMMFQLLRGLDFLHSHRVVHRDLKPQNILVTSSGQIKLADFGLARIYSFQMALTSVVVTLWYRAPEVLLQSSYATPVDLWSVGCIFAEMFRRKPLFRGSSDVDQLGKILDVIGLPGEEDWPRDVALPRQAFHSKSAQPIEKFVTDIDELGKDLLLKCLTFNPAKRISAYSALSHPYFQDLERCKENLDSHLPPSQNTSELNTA

Legend:
Assay in all cases: kinase-Nluc reporter destabilization hit call (1 = scored as downregulated) (binary); higher = compound decreases kinase abundance
Conditions in all cases: K562; 2-18 h
ABL1 = ABL1 (UniProt P00519)
AKT1 = AKT1 (UniProt P31749)
ALK = ALK (UniProt Q9UM73)
ARAF = ARAF (UniProt P10398)
AURKA = AURKA (UniProt O14965)
AURKB = AURKB (UniProt Q96GD4)
AURKC = AURKC (UniProt Q9UQB9)
BLK = BLK (UniProt P51451)
BMX = BMX (UniProt P51813)
BRAF = BRAF (UniProt P15056)
BRAF_V600E = system: BRAF_V600E
BTK = BTK (UniProt Q06187)
CAMK2A = CAMK2A (UniProt Q9UQM7)
CAMK2G = CAMK2G (UniProt Q13555)
CDK10 = CDK10 (UniProt Q15131)
CDK2 = CDK2 (UniProt P24941)
CDK3 = CDK3 (UniProt Q00526)
CDK4 = CDK4 (UniProt P11802)
CDK5 = CDK5 (UniProt Q00535)
CDK6 = CDK6 (UniProt Q00534)

Row | SMILES | kinase-Nluc reporter destabilization hit call (ABL1) | kinase-Nluc reporter destabilization hit call (AKT1) | kinase-Nluc reporter destabilization hit call (ALK) | kinase-Nluc reporter destabilization hit call (ARAF) | kinase-Nluc reporter destabilization hit call (AURKA) | kinase-Nluc reporter destabilization hit call (AURKB) | kinase-Nluc reporter destabilization hit call (AURKC) | kinase-Nluc reporter destabilization hit call (BLK) | kinase-Nluc reporter destabilization hit call (BMX) | kinase-Nluc reporter destabilization hit call (BRAF) | kinase-Nluc reporter destabilization hit call (BRAF_V600E) | kinase-Nluc reporter destabilization hit call (BTK) | kinase-Nluc reporter destabilization hit call (CAMK2A) | kinase-Nluc reporter destabilization hit call (CAMK2G) | kinase-Nluc reporter destabilization hit call (CDK10) | kinase-Nluc reporter destabilization hit call (CDK2) | kinase-Nluc reporter destabilization hit call (CDK3) | kinase-Nluc reporter destabilization hit call (CDK4) | kinase-Nluc reporter destabilization hit call (CDK5) | kinase-Nluc reporter destabilization hit call (CDK6)
1 | C=C(C)C(=O)Nc1cccc(-c2ncnc3[nH]cc(C(=O)OCC)c23)c1 (10 µM) | inactive: 0 | inactive: 0 | inactive: 0 | inactive: 0 | inactive: 0 | inactive: 0 | inactive: 0 | inactive: 0 | inactive: 0 | inactive: 0 | inactive: 0 | inactive: 0 | inactive: 0 | inactive: 0 | inactive: 0 | inactive: 0 | inactive: 0 | inactive: 0 | inactive: 0 | inactive: 0
2 | Cc1ccc2nc(NC(=O)CSc3nc4c(c(=O)n3-c3ccccc3)SCC4)sc2c1 (2 µM) | inactive: 0 | inactive: 0 | inactive: 0 | inactive: 0 | inactive: 0 | inactive: 0 | inactive: 0 | inactive: 0 | inactive: 0 | inactive: 0 | inactive: 0 | inactive: 0 | inactive: 0 | inactive: 0 | inactive: 0 | inactive: 0 | inactive: 0 | inactive: 0 | inactive: 0 | inactive: 0
3 | COc1ncc(-c2nc(N3CCOCC3)nc3c(CN4CCC(C(C)(C)O)CC4)cc(F)cc23)cc1NS(C)(=O)=O [Linperlisib] (10 µM) | inactive: 0 | inactive: 0 | inactive: 0 | inactive: 0 | inactive: 0 | inactive: 0 | inactive: 0 | inactive: 0 | inactive: 0 | inactive: 0 | inactive: 0 | inactive: 0 | inactive: 0 | inactive: 0 | inactive: 0 | inactive: 0 | inactive: 0 | inactive: 0 | inactive: 0 | inactive: 0
4 | C=CC(=O)Nc1ccc(CN(C(=O)Nc2c(Cl)c(OC)cc(OC)c2Cl)c2cc(Nc3ccc(N4CCN(C)CC4)cc3)ncn2)cc1 (10 µM) | inactive: 0 | inactive: 0 | inactive: 0 | inactive: 0 | inactive: 0 | inactive: 0 | inactive: 0 | inactive: 0 | inactive: 0 | inactive: 0 | inactive: 0 | inactive: 0 | inactive: 0 | inactive: 0 | inactive: 0 | inactive: 0 | inactive: 0 | inactive: 0 | inactive: 0 | inactive: 0
5 | O=C(Nc1ccc(F)cc1F)[C@H](NC(=S)Nc1cc(C(F)(F)F)cc(C(F)(F)F)c1)c1ccccc1 (2.5 µM) | inactive: 0 | inactive: 0 | inactive: 0 | inactive: 0 | inactive: 0 | inactive: 0 | inactive: 0 | inactive: 0 | inactive: 0 | inactive: 0 | inactive: 0 | inactive: 0 | inactive: 0 | inactive: 0 | inactive: 0 | inactive: 0 | inactive: 0 | inactive: 0 | inactive: 0 | inactive: 0
6 | CNC(=O)Nc1ccc(-c2cc(-c3ccnc(Nc4ccc(C)c(S(=O)(=O)N(C)C)c4)n3)ccn2)cc1 [hSMG-1 inhibitor 11e] (2.5 µM) | inactive: 0 | inactive: 0 | inactive: 0 | inactive: 0 | inactive: 0 | inactive: 0 | inactive: 0 | inactive: 0 | inactive: 0 | inactive: 0 | inactive: 0 | inactive: 0 | inactive: 0 | inactive: 0 | inactive: 0 | inactive: 0 | inactive: 0 | inactive: 0 | inactive: 0 | inactive: 0
7 | C[C@@H]1C(=O)O[C@H](C)[C@H]1C[C@@H](O)[C@](C)(O)[C@H]1CC[C@@]2(O)C3=CC(=O)[C@@H]4C[C@@H](O)[C@@H](O)C[C@]4(C)[C@H]3CC[C@]12C [Cyasterone] (10 µM) | inactive: 0 | inactive: 0 | inactive: 0 | inactive: 0 | inactive: 0 | inactive: 0 | inactive: 0 | inactive: 0 | inactive: 0 | inactive: 0 | inactive: 0 | inactive: 0 | inactive: 0 | inactive: 0 | inactive: 0 | inactive: 0 | inactive: 0 | inactive: 0 | inactive: 0 | inactive: 0
8 | Cc1cc(-c2cc(OC(=O)c3ccccc3)ccc2Cl)cc2nnc(Nc3ccc(OCCN4CCCC4)cc3)nc12 (0.5 µM) | inactive: 0 | inactive: 0 | inactive: 0 | inactive: 0 | inactive: 0 | inactive: 0 | inactive: 0 | inactive: 0 | inactive: 0 | inactive: 0 | inactive: 0 | inactive: 0 | inactive: 0 | inactive: 0 | inactive: 0 | inactive: 0 | inactive: 0 | inactive: 0 | inactive: 0 | inactive: 0
9 | Fc1ccc(-c2nc(-c3c(F)cccc3F)[nH]c2-c2ccncc2)cc1 (10 µM) | inactive: 0 | inactive: 0 | inactive: 0 | inactive: 0 | inactive: 0 | inactive: 0 | inactive: 0 | inactive: 0 | inactive: 0 | inactive: 0 | inactive: 0 | inactive: 0 | inactive: 0 | inactive: 0 | inactive: 0 | inactive: 0 | inactive: 0 | inactive: 0 | inactive: 0 | inactive: 0
10 | CN1CCN(c2ccc(C(=O)Nc3cc(-c4cccc(NS(=O)(=O)c5ccccc5)c4)[nH]n3)cc2)CC1 [BPR1J-097 Hydrochloride] (2.5 µM) | inactive: 0 | inactive: 0 | inactive: 0 | inactive: 0 | inactive: 0 | inactive: 0 | inactive: 0 | inactive: 0 | inactive: 0 | inactive: 0 | inactive: 0 | inactive: 0 | inactive: 0 | inactive: 0 | inactive: 0 | inactive: 0 | inactive: 0 | inactive: 0 | inactive: 0 | inactive: 0
11 | C[C@@H](c1ccc2nccn2c1)n1nnc2ncc(-c3cnn(C)c3)nc21 [Savolitinib] (10 µM) | inactive: 0 | inactive: 0 | inactive: 0 | inactive: 0 | inactive: 0 | inactive: 0 | inactive: 0 | inactive: 0 | inactive: 0 | inactive: 0 | inactive: 0 | inactive: 0 | inactive: 0 | inactive: 0 | inactive: 0 | inactive: 0 | inactive: 0 | inactive: 0 | inactive: 0 | inactive: 0
12 | COc1cc([N+](=O)[O-])ccc1S(=O)(=O)N1C[C@@H](CN2CCN(c3ccccn3)CC2)[C@H](c2cccc(F)c2)C1 (relative stereo) (10 µM) | inactive: 0 | inactive: 0 | inactive: 0 | inactive: 0 | inactive: 0 | inactive: 0 | inactive: 0 | inactive: 0 | inactive: 0 | inactive: 0 | inactive: 0 | inactive: 0 | inactive: 0 | inactive: 0 | inactive: 0 | inactive: 0 | inactive: 0 | inactive: 0 | inactive: 0 | inactive: 0
13 | O=C(O)c1cc(O)ccc1O [2,5-Dihydroxybenzoic acid] (10 µM) | inactive: 0 | inactive: 0 | inactive: 0 | inactive: 0 | inactive: 0 | inactive: 0 | inactive: 0 | inactive: 0 | inactive: 0 | inactive: 0 | inactive: 0 | inactive: 0 | inactive: 0 | inactive: 0 | inactive: 0 | inactive: 0 | inactive: 0 | inactive: 0 | inactive: 0 | inactive: 0
14 | OC(COc1ccc(C(F)(F)F)cc1)CN(Cc1ccccc1)Cc1ccccc1 (stereo not given) (2.5 µM) | inactive: 0 | inactive: 0 | inactive: 0 | inactive: 0 | inactive: 0 | inactive: 0 | inactive: 0 | inactive: 0 | inactive: 0 | inactive: 0 | inactive: 0 | inactive: 0 | inactive: 0 | inactive: 0 | inactive: 0 | inactive: 0 | inactive: 0 | inactive: 0 | inactive: 0 | inactive: 0
15 | C=C1C(=O)O[C@@H]2C[C@@]3(C)CCC[C@H](C)C3=C[C@H]12 [Alantolactone] (10 µM) | inactive: 0 | inactive: 0 | inactive: 0 | inactive: 0 | inactive: 0 | inactive: 0 | inactive: 0 | inactive: 0 | inactive: 0 | inactive: 0 | inactive: 0 | inactive: 0 | inactive: 0 | inactive: 0 | inactive: 0 | inactive: 0 | inactive: 0 | inactive: 0 | inactive: 0 | inactive: 0
16 | Cc1c(CN2CCN(C(=O)[C@H](C)O)CC2)sc2c(N3CCOCC3)nc(-c3cnc(N)nc3)nc12 [Apitolisib] (10 µM) | active: 1 | inactive: 0 | inactive: 0 | inactive: 0 | inactive: 0 | inactive: 0 | inactive: 0 | inactive: 0 | inactive: 0 | inactive: 0 | inactive: 0 | inactive: 0 | inactive: 0 | inactive: 0 | inactive: 0 | inactive: 0 | inactive: 0 | inactive: 0 | inactive: 0 | inactive: 0

Full records from above. Order of values: kinase-Nluc reporter destabilization hit call (ABL1) | kinase-Nluc reporter destabilization hit call (AKT1) | kinase-Nluc reporter destabilization hit call (ALK) | kinase-Nluc reporter destabilization hit call (ARAF) | kinase-Nluc reporter destabilization hit call (AURKA) | kinase-Nluc reporter destabilization hit call (AURKB) | kinase-Nluc reporter destabilization hit call (AURKC) | kinase-Nluc reporter destabilization hit call (BLK) | kinase-Nluc reporter destabilization hit call (BMX) | kinase-Nluc reporter destabilization hit call (BRAF) | kinase-Nluc reporter destabilization hit call (BRAF_V600E) | kinase-Nluc reporter destabilization hit call (BTK) | kinase-Nluc reporter destabilization hit call (CAMK2A) | kinase-Nluc reporter destabilization hit call (CAMK2G) | kinase-Nluc reporter destabilization hit call (CDK10) | kinase-Nluc reporter destabilization hit call (CDK2) | kinase-Nluc reporter destabilization hit call (CDK3) | kinase-Nluc reporter destabilization hit call (CDK4) | kinase-Nluc reporter destabilization hit call (CDK5) | kinase-Nluc reporter destabilization hit call (CDK6)
OC(COc1ccc(C(F)(F)F)cc1)CN(Cc1ccccc1)Cc1ccccc1 (stereo not given) (2.5 µM) is listed as inactive: 0 | inactive: 0 | inactive: 0 | inactive: 0 | inactive: 0 | inactive: 0 | inactive: 0 | inactive: 0 | inactive: 0 | inactive: 0 | inactive: 0 | inactive: 0 | inactive: 0 | inactive: 0 | inactive: 0 | inactive: 0 | inactive: 0 | inactive: 0 | inactive: 0 | inactive: 0
COc1cc([N+](=O)[O-])ccc1S(=O)(=O)N1C[C@@H](CN2CCN(c3ccccn3)CC2)[C@H](c2cccc(F)c2)C1 (relative stereo) (10 µM) is listed as inactive: 0 | inactive: 0 | inactive: 0 | inactive: 0 | inactive: 0 | inactive: 0 | inactive: 0 | inactive: 0 | inactive: 0 | inactive: 0 | inactive: 0 | inactive: 0 | inactive: 0 | inactive: 0 | inactive: 0 | inactive: 0 | inactive: 0 | inactive: 0 | inactive: 0 | inactive: 0
